Experiment [1] concerns the target T1, GST-GLO-3 (amino acids 1–219) (C. elegans) (UniProt Q21045).
T1 sequence: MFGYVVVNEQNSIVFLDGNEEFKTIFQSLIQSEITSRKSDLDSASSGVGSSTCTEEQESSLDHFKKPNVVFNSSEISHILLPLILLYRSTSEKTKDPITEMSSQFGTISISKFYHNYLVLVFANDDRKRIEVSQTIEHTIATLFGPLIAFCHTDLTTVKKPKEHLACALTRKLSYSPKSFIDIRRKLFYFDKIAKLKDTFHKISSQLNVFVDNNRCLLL
Nature of the experiment: pull-down; GST or GST-GLO-3 proteins (2.5 μg each) immobilised on glutathione-Sepharose beads, incubated with purified His6-CCZ-1 proteins in 1% BSA, 100mM Tris-HCl pH 7.5, 150mM NaCl, 10mM DTT, 0.05% NP40, 1mM PMSF at 4°C for 4 h; Western blot with anti-His6; both purified. On the technique in general: In western blotting, separated proteins are transferred to a membrane and probed.

Amino acid sequences for entries named in this document (tags omitted). A change or cut given only in a name is not applied to a line headed by its entry.
UniProt Q9XVL8: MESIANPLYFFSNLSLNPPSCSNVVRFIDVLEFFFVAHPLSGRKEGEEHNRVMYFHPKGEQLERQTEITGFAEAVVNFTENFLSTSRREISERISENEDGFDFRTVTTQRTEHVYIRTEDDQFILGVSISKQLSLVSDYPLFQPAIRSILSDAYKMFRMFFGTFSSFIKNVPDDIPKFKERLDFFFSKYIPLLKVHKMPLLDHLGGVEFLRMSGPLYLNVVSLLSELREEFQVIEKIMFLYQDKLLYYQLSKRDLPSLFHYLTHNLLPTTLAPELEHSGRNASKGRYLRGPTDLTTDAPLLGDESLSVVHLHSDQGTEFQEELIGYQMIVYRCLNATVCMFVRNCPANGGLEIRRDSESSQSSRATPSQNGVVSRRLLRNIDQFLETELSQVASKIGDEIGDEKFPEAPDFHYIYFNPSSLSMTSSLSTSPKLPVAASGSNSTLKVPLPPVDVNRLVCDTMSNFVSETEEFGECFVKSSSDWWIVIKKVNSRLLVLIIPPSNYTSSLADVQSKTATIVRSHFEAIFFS

The target of experiment [2] is T2, GST-GLO-3 (full length, amino acids 1–607) (C. elegans) (UniProt Q21045).
T2 sequence: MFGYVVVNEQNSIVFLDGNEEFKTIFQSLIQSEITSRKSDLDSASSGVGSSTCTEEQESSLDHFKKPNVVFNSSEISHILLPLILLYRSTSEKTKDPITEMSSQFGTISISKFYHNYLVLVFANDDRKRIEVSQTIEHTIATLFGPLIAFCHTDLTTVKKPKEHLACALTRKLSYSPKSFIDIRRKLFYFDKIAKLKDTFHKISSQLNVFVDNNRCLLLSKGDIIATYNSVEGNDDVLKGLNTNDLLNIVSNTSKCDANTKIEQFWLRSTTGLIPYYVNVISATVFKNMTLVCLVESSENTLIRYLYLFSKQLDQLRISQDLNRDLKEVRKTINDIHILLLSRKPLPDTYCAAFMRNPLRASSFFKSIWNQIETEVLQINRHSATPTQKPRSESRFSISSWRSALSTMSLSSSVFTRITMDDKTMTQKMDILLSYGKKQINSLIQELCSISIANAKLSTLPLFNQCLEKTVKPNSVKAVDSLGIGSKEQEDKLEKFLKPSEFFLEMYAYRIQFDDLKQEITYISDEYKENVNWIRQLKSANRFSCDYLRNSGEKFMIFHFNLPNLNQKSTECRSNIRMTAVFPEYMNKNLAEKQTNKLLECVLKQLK
Described as above.

The target in experiment [3] is CCZ-1 (full length), LexA DNA binding domain fusion (bait) (C. elegans). Briefly: two-hybrid; DupLEX-A system in S. cerevisiae EGY48; LexA DNA binding domain bait (pEG202), B42 activation domain prey (pJG4-5); LEU2 and lacZ (pSH18-34) reporters; 30°C, 3 days.

No constants are given. Whether binding was seen depends on the method and setting. Binding calls can cover weak binding; strength is not graded here. Where a sequence is shown, tags or fusion partners need not be part of it.

For “His6-tagged CCZ-1 (amino acids 1–200) (C. elegans) (domain or fragment)”, the binding result in experiment [1] and in experiment [2] was “binds” in each case. As to “His6-tagged CCZ-1 (full length, amino acids 1–528) (from UniProt Q9XVL8)”, the binding result in experiment [2] was “binds”.

B1: GLO-3 (full length), B42 transcription activation domain fusion (prey) (protein, UniProt Q21045 1-607)
chain: T2 sequence
Turning to B1, in experiment [3], the binding entry is given as “binds”.

These data come from PMC6268011.
